# Data reported in US3961054A, “Combatting dandruff with mercapto quinoline N-oxides” (Ciba-Geigy Corporation, priority 1974, dated 1976).
# System: P. Ovale
# Assay: Microbiological activity against P. Ovale, agar serial dilution (Table 1)
# Type: cell-based, P. Ovale (ATCC 14521)
# Conditions: 96 h, read-out: Minimum Inhibitory Concentration (MIC) against P. Ovale
# Protocol: The microbiological activities of the zinc and sodium complexes of 2-mercapto-quinoline-N-oxide (MQNO) against P. Ovale were compared with the sodium and zinc salts of pyridinethione-N-oxide (PTO) and other conventional soapbacteriostats. P. Ovale is a microorganism associated with dandruff conditions.
# Equal amounts of the respective compounds were dissolved in methyl cellosolve, dimethylformamide, or water, serially diluted in ten fold sequence and incorporated into plates of molten Agar. The plates were allowed to solidify, were then inoculated with P. Ovale (ATCC 14521), incubated at 27°C. for 4 days and inspected for growth.
smiles,measurement,value
CC(C)(C)CC(C)(C)c1ccc(OCCOCC[N+](C)(C)Cc2ccccc2)cc1 [Benzethonium chloride],MIC,> 1000 µg/mL
